From the supplement of paper PMC4604168 (melanoma cell lines)
Some of the results follow. Single values are uncertain, as repeats are few or missing.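 Cells were imaged in 1,536-well plates, and nuclei stained with an antibody against cleaved PARP were counted against all DNA-stained nuclei to give the apoptosis fraction. Screening doses were chosen to leave most cells alive, and resting and induced cleaved-PARP levels differ strongly between cell lines.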

Key:
Test in all cases: cleaved PARP positive nuclei fraction relative to DMSO control; melanoma cells; higher = more apoptosis
Conditions in all cases: library dose: low library concentration; 72 h
MZ2-MEL = test system: MZ2-MEL
MeWo = test system: MeWo
RPMI7951 = test system: RPMI7951
RVH-421 = test system: RVH-421
SkMel28 = test system: SkMel28
SkMel2 = test system: SkMel2
SkMel30 = test system: SkMel30
SkMel5 = test system: SkMel5
UACC257 = test system: UACC257
UACC62 = test system: UACC62

| SMILES | cleaved PARP positive nuclei fraction (MZ2-MEL) | cleaved PARP positive nuclei fraction (MeWo) | cleaved PARP positive nuclei fraction (RPMI7951) | cleaved PARP positive nuclei fraction (RVH-421) | cleaved PARP positive nuclei fraction (SkMel28) | cleaved PARP positive nuclei fraction (SkMel2) | cleaved PARP positive nuclei fraction (SkMel30) | cleaved PARP positive nuclei fraction (SkMel5) | cleaved PARP positive nuclei fraction (UACC257) | cleaved PARP positive nuclei fraction (UACC62) |
| --- | --- | --- | --- | --- | --- | --- | --- | --- | --- | --- |
| C#Cc1cccc(Nc2ncnc3cc(OCCOC)c(OCCOC)cc23)c1 [erlotinib] + CC1(C)NC(=O)N(c2ccc([N+](=O)[O-])c(C(F)(F)F)c2)C1=O [nilutamide] (first compound 0.8 µM, partner dose 1 µM) | 126% | 79.8% | 33.7% | 96.1% | 71.5% | 62.8% | 70.1% | 64.3% | 90.1% | 102% |
| C=CCNC1=C2C[C@@H](C)C[C@H](OC)[C@H](O)[C@@H](C)/C=C(\C)[C@H](OC(N)=O)[C@@H](OC)/C=C\C=C(/C)C(=O)NC(=CC1=O)C2=O [Tanespimycin] + COC(=O)c1sccc1S(=O)(=O)Nc1ccc(Nc2ccccc2)cc1OC [GSK0660] (first compound 0.002 µM, partner dose 1 µM) | 47.2% | 99.2% | 89.4% | 106% | 80.3% | 113% | 61.5% | 166% | 199% | 65.7% |
| C#Cc1cccc(Nc2ncnc3cc(OCCOC)c(OCCOC)cc23)c1 [erlotinib] + CC(C)(C)c1cnc(CSc2cnc(NC(=O)C3CCNCC3)s2)o1 [SNS-032] (first compound 0.8 µM, partner dose 0.01 µM) | 94.5% | 98.4% | 70.4% | 23.7% | 26.5% | 81.4% | 143% | 76.4% | 92.3% | 78.1% |
| OCc1c[nH]c2ccccc12 [Indole-3-carbinol] + COc1cc2c(Oc3ccc4[nH]c(C)cc4c3F)ncnc2cc1OCCCN1CCCC1 [cediranib] (first compound 0.8 µM, partner dose 0.4 µM) | 150% | 62.9% | 38% | 126% | 81.3% | 97.3% | 63% | 34.9% | 72.1% | 308% |
| C[C@]1(c2nc3c(C(N)=O)cccc3[nH]2)CCCN1 [Veliparib] + CN(C)S(=O)(=O)c1ccc2c(c1)/C(=C/c1cc3c([nH]1)CCCC3)C(=O)N2 [SU6656] (first compound 1.4 µM, partner dose 0.4 µM) | 95.6% | 54.6% | 51.9% | 49% | 144% | 101% | 66.7% | 130% | 38.4% | 124% |
| CC(C)(C)c1cnc(CSc2cnc(NC(=O)C3CCNCC3)s2)o1 + CN(NC(=O)CC(=O)NN(C)C(=S)c1ccccc1)C(=S)c1ccccc1 [STA4783] (first compound 0.01 µM, partner dose 0.006 µM) | 72.5% | 37.1% | 96.4% | 71.4% | 40.8% | 144% | 154% | 59.4% | 292% | 284% |
| O=C(CCCCCCC(=O)Nc1ccccc1)NO [vorinostat] + CC(C)(C)c1cnc(CSc2cnc(NC(=O)C3CCNCC3)s2)o1 [SNS-032] (first compound 0.08 µM, partner dose 0.01 µM) | 135% | 71.5% | 193% | 20.1% | 69.3% | 44.1% | 62.7% | 65.7% | 201% | 97.8% |
| Cn1nnc2c(C(N)=O)ncn2c1=O [temozolomide] + OCCn1cc(-c2cnc3nnn(Cc4ccc5ncccc5c4)c3n2)cn1 [PF04217903] (first compound 2 µM, partner dose 1 µM) | 121% | 111% | 69.5% | 99.4% | 96.8% | 92.7% | 74.3% | 92% | 78.9% | 64.3% |
| C[C@@H]1CCN(C(=O)CC#N)C[C@@H]1N(C)c1ncnc2[nH]ccc12 + CN(C)S(=O)(=O)c1ccc2c(c1)/C(=C/c1cc3c([nH]1)CCCC3)C(=O)N2 [SU6656] (first compound 1 µM, partner dose 0.4 µM) | 44.6% | 40.4% | 47% | 64.5% | 45.2% | 81.8% | 59% | 71.3% | 33.4% | 54.4% |
| Clc1ccc(Nc2nnc(Cc3ccncc3)c3ccccc23)cc1 [vatalanib] + C[C@@H]1CCN(C(=O)CC#N)C[C@@H]1N(C)c1ncnc2[nH]ccc12 [CP690550] (first compound 2 µM, partner dose 1 µM) | 176% | 86.6% | 58.5% | 42% | 28.4% | 176% | 133% | 149% | 242% | 147% |
| Nc1cccc2c1CN(C1CCC(=O)NC1=O)C2=O (configuration not stated) [lenalidomide] + O=C(O)c1ccc(-c2c[nH]c3ncc(-c4ccccc4)cc23)cc1C1CCCC1 [GSK650394] (first compound 1 µM, partner dose 0.16 µM) | 63.4% | 57.7% | 89% | 46.1% | 52.6% | 60% | 57% | 172% | 138% | 105% |
| COCC[n+]1c2c(n(Cc3cnccn3)c1C)C(=O)c1ccccc1C2=O + NCC(=O)Nc1ccc(-n2nc(C(F)(F)F)cc2-c2ccc3c(ccc4ccccc43)c2)cc1 [OSU03012] (first compound 0.0004 µM, partner dose 1 µM) | 172% | 169% | 129% | 68.1% | 78.5% | 214% | 148% | 104% | 220% | 32.5% |
| CC(=O)c1c(C)c2cnc(Nc3ccc(N4CCNCC4)cn3)nc2n(C2CCCC2)c1=O [palbociclib] + Cc1nc(Nc2ncc(C(=O)Nc3c(C)cccc3Cl)s2)cc(N2CCN(CCO)CC2)n1 [dasatanib] (first compound 0.04 µM, partner dose 0.004 µM) | 24.5% | 80.4% | 78.6% | 488% | 89.1% | 121% | 83.5% | – | – | 342% |
| CC1(C)NC(=O)N(c2ccc([N+](=O)[O-])c(C(F)(F)F)c2)C1=O [nilutamide] + O=C(O)c1ccc(-c2c[nH]c3ncc(-c4ccccc4)cc23)cc1C1CCCC1 [GSK650394] (first compound 1 µM, partner dose 0.16 µM) | 122% | 274% | 68.5% | 88.1% | 65% | 141% | 67.8% | 39.4% | 74.1% | 83% |
| C=CCNC1=C2C[C@@H](C)C[C@H](OC)[C@H](O)[C@@H](C)/C=C(\C)[C@H](OC(N)=O)[C@@H](OC)/C=C\C=C(/C)C(=O)NC(=CC1=O)C2=O [Tanespimycin] + COc1ccc(Cl)c(Nc2nc3ccccc3nc2NS(=O)(=O)c2cccc(NC(=O)C(C)(C)N)c2)c1 [XL147] (first compound 0.002 µM, partner dose 0.8 µM) | 41% | 161% | 117% | 105% | 80.1% | 98% | 66.1% | – | – | 57.3% |
| C=CCNC1=C2C[C@@H](C)C[C@H](OC)[C@H](O)[C@@H](C)/C=C(\C)[C@H](OC(N)=O)[C@@H](OC)/C=C\C=C(/C)C(=O)NC(=CC1=O)C2=O [Tanespimycin] + C[C@]1(c2nc3c(C(N)=O)cccc3[nH]2)CCCN1 [Veliparib] (first compound 0.002 µM, partner dose 1.4 µM) | 83.9% | 189% | 136% | 113% | 65.6% | 183% | 180% | – | – | 118% |
| OCc1c[nH]c2ccccc12 [Indole-3-carbinol] + COCC[n+]1c2c(n(Cc3cnccn3)c1C)C(=O)c1ccccc1C2=O [YM155] (first compound 0.8 µM, partner dose 0.0004 µM) | 259% | 174% | 127% | 43.5% | 106% | 185% | 220% | – | – | 44.4% |
| OCc1c[nH]c2ccccc12 [Indole-3-carbinol] + Cn1c(Nc2ccc(C(F)(F)F)cc2)nc2cc(Oc3ccnc(-c4ncc(C(F)(F)F)[nH]4)c3)ccc21 [CHIR265] (first compound 0.8 µM, partner dose 0.08 µM) | 90.3% | 199% | 68.3% | 264% | 103% | 147% | 35.7% | – | – | 158% |
| C=CCNC1=C2C[C@@H](C)C[C@H](OC)[C@H](O)[C@@H](C)/C=C(\C)[C@H](OC(N)=O)[C@@H](OC)/C=C\C=C(/C)C(=O)NC(=CC1=O)C2=O [Tanespimycin] + Clc1ccc(Nc2nnc(Cc3ccncc3)c3ccccc23)cc1 [vatalanib] (first compound 0.002 µM, partner dose 2 µM) | 356% | 99.9% | 132% | 112% | 97.3% | 114% | 61.5% | – | – | 56% |
| Cc1nc(Nc2ncc(C(=O)Nc3c(C)cccc3Cl)s2)cc(N2CCN(CCO)CC2)n1 [dasatanib] + Cn1c(Nc2ccc(C(F)(F)F)cc2)nc2cc(Oc3ccnc(-c4ncc(C(F)(F)F)[nH]4)c3)ccc21 [CHIR265] (first compound 0.004 µM, partner dose 0.08 µM) | 118% | 231% | 512% | 237% | 170% | 79.1% | 84.4% | – | – | 64.8% |
| C=CCn1c(=O)c2cnc(Nc3ccc(N4CCN(C)CC4)cc3)nc2n1-c1cccc(C(C)(C)O)n1 + CO[C@@H]1[C@H](N(C)C(=O)c2ccccc2)C[C@H]2O[C@]1(C)n1c3ccccc3c3c4c(c5c6ccccc6n2c5c31)C(=O)NC4 [Midostaurin] (first compound 0.02 µM, partner dose 0.08 µM) | 96.2% | 146% | 55.8% | 25.6% | 150% | 105% | 172% | 198% | 68.8% | 102% |
| OCc1c[nH]c2ccccc12 [Indole-3-carbinol] + COc1ccc(Cl)c(Nc2nc3ccccc3nc2NS(=O)(=O)c2cccc(NC(=O)C(C)(C)N)c2)c1 [XL147] (first compound 0.8 µM, partner dose 0.8 µM) | 269% | 50.5% | 79.3% | 87.5% | 26.6% | 164% | 57.7% | – | – | 69.9% |
| C#Cc1cccc(Nc2ncnc3cc(OCCOC)c(OCCOC)cc23)c1 [erlotinib] + C[C@]1(c2nc3c(C(N)=O)cccc3[nH]2)CCCN1 [Veliparib] (first compound 0.8 µM, partner dose 1.4 µM) | 103% | 119% | 371% | 56.5% | 51.8% | 223% | 241% | – | – | 36.8% |

Single records (already shown). Values in the order: cleaved PARP positive nuclei fraction (MZ2-MEL) | cleaved PARP positive nuclei fraction (MeWo) | cleaved PARP positive nuclei fraction (RPMI7951) | cleaved PARP positive nuclei fraction (RVH-421) | cleaved PARP positive nuclei fraction (SkMel28) | cleaved PARP positive nuclei fraction (SkMel2) | cleaved PARP positive nuclei fraction (SkMel30) | cleaved PARP positive nuclei fraction (SkMel5) | cleaved PARP positive nuclei fraction (UACC257) | cleaved PARP positive nuclei fraction (UACC62)
CC(=O)c1c(C)c2cnc(Nc3ccc(N4CCNCC4)cn3)nc2n(C2CCCC2)c1=O [palbociclib] + Cc1nc(Nc2ncc(C(=O)Nc3c(C)cccc3Cl)s2)cc(N2CCN(CCO)CC2)n1 [dasatanib] (first compound 0.04 µM, partner dose 0.004 µM) is listed as 24.5% | 80.4% | 78.6% | 488% | 89.1% | 121% | 83.5% | – | – | 342%
C=CCNC1=C2C[C@@H](C)C[C@H](OC)[C@H](O)[C@@H](C)/C=C(\C)[C@H](OC(N)=O)[C@@H](OC)/C=C\C=C(/C)C(=O)NC(=CC1=O)C2=O [Tanespimycin] + COC(=O)c1sccc1S(=O)(=O)Nc1ccc(Nc2ccccc2)cc1OC [GSK0660] (first compound 0.002 µM, partner dose 1 µM) is listed as 47.2% | 99.2% | 89.4% | 106% | 80.3% | 113% | 61.5% | 166% | 199% | 65.7%
